In PMC4323012:
These are yes or no findings as the source states them, for the method shown. In cells and extracts the contact can be indirect. Some binding calls cover weakened binding; strength is not graded here. Each block holds one substance with its values, some of them ahead of it.

Amino acid sequences for entries named in this document (tags omitted).
UniProt Q01094: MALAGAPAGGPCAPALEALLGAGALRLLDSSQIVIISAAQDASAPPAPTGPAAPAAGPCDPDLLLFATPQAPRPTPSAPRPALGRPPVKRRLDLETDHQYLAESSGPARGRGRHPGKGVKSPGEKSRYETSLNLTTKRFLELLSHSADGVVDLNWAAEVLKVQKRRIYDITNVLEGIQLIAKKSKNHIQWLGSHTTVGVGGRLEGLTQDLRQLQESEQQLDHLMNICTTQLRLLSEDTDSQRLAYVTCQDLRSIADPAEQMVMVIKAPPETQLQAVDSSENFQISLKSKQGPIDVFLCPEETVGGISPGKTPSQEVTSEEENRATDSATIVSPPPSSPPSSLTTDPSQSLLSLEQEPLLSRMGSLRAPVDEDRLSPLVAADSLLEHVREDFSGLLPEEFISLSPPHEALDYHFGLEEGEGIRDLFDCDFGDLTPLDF
UniProt Q9UDV7: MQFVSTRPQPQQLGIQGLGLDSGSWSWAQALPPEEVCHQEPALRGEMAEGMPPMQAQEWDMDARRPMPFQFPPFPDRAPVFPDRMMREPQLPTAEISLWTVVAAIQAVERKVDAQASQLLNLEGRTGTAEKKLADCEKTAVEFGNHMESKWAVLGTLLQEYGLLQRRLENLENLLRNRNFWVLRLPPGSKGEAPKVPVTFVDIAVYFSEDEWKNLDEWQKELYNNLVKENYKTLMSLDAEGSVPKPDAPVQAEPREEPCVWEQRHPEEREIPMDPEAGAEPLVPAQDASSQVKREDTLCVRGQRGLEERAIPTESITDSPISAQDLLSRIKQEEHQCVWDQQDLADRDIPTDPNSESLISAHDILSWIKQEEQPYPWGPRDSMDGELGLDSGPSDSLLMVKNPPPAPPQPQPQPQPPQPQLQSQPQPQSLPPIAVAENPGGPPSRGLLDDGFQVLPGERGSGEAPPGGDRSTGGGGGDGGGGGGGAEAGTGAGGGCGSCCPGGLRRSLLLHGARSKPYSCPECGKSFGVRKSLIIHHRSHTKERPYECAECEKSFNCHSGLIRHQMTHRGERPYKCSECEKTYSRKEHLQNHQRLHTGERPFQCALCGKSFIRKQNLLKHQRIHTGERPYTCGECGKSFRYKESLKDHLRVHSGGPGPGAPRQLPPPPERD

How the values were obtained:
[1] = molecular target: E2F1, endogenous in TE10 cells (human (endogenous in TE10)) (UniProt Q01094); assay: co-IP; endogenous proteins; TE10 cell lysates immunoprecipitated with anti-E2F1 antibody or control normal IgG and protein G Dynabeads, immunoblot
[2] = molecular target: HA-E2F1 (from pSG5.HA-E2F1) (UniProt Q01094); assay: co-IP; 293T cells transfected with pSG5.HA-E2F1 and pFLAG.CMV4-ZNF282; lysates immunoprecipitated with anti-E2F1 antibody or control normal IgG and protein G Dynabeads, immunoblot with anti-FLAG and anti-E2F1
[3] = molecular target: GST-E2F1 (recombinant, from pGEX-4T-1) (UniProt Q01094); assay: pull-down; in vitro translated HA-tagged ZNF282 incubated with immobilized recombinant GST-E2F1; bound proteins detected by immunoblot with anti-HA antibody; only the target purified

binding [1]: binds
Substance: Zinc finger protein 282 (ZNF282), endogenous in TE10 cells (from UniProt Q9UDV7 1-671)

binding [2]: binds
Substance: FLAG-ZNF282 (from pFLAG.CMV4-ZNF282) (from UniProt Q9UDV7 1-671)

binding [3]: binds
Substance: HA-tagged ZNF282, in vitro translated (from pSG5.HA-ZNF282) (from UniProt Q9UDV7 1-671)
